From PMC8767557
Results are given in words; binding and its absence hold for the method and conditions named. In cells and extracts the contact can be indirect. Some entries that bind do so weakly or less than the wild type.

The chains behind the UniProt entries cited, without tags or fusion partners.
UniProt P52294: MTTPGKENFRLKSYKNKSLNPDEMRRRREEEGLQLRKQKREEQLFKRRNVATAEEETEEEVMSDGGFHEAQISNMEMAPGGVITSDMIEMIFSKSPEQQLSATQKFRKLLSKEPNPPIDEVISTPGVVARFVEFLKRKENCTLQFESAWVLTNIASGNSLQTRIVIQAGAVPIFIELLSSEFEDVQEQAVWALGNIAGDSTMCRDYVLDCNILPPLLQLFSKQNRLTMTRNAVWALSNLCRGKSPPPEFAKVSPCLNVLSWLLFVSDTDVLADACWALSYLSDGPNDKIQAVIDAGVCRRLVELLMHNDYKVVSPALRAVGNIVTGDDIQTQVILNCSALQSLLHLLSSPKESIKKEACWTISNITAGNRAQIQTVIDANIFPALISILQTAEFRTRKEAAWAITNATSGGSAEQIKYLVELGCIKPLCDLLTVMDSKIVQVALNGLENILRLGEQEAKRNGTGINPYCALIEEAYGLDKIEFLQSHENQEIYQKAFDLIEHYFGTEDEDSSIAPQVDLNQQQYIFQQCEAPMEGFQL
UniProt Q5XX02: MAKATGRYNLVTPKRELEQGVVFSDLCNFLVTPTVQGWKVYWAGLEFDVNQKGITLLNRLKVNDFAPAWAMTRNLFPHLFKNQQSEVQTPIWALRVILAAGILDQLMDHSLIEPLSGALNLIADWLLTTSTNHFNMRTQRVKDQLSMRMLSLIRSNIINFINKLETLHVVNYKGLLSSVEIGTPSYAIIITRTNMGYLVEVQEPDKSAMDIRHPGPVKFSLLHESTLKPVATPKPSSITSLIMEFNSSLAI

Biological target: GST-importin α5 (human importin α5 as a GST fusion protein) (human) (UniProt P52294)
Assay: pull-down; […] (50 mM Tris-HCl pH 7.4, 150 mM NaCl, 5 mM EDTA, 1% Triton X-100), […]; only the target purified

Substance: Sudan ebolavirus (SUDV) VP24 (from UniProt Q5XX02 1-251)
- binding: binds
